Read-outs that look alike come from different tables or passages of the source. These are yes or no findings as the source states them, for the method shown. In cells and extracts the contact can be indirect. Some entries that bind do so weakly or less than the wild type.

Chains of the proteins cited; added tags and fusions are not shown. Lines headed by an entry give the natural chain unless they say otherwise; changes in a name come on top.
UniProt Q8NBU5, whole entry: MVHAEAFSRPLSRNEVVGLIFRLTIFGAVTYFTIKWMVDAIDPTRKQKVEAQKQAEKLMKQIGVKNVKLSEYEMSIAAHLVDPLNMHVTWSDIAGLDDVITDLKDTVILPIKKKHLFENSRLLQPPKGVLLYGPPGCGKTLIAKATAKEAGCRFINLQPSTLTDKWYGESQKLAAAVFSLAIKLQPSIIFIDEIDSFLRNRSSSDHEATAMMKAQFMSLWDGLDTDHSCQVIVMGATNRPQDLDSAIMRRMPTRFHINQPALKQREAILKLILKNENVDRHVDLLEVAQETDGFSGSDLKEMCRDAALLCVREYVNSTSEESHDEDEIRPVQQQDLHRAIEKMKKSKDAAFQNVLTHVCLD
UniProt Q15388, whole entry: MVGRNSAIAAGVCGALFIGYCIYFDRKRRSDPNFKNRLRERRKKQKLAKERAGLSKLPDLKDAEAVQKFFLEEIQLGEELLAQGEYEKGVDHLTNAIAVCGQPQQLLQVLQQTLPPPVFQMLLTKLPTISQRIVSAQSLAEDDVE

Here are results for 2 molecules from doi:10.1101/2023.09.06.556408.

Common to all, as to assay: co-IP
The target of assay [1] is ATPase family AAA domain containing 1 (ATAD1)-HA (human) (UniProt Q8NBU5).
Another assay addresses ATAD1^E193Q-HA (human) (UniProt Q8NBU5).
Assay [2] has as its target ATPase family AAA domain containing 1 (ATAD1)-HA (human) (UniProt Q8NBU5). This is another data set of the same source.

For TOMM20 (from UniProt Q15388 1-145), the binding result (in assay [1]; in the assay with ATAD1^E193Q-HA (human); in assay [2]) was “binds” in each case.

B1: TOMM40 (protein, UniProt O96008 1-361)
chain: MGNVLAASSPPAGPPPPPAPALVGLPPPPPSPPGFTLPPLGGSLGAGTSTSRSSERTPGAATASASGAAEDGACGCLPNPGTFEECHRKCKELFPIQMEGVKLTVNKGLSNHFQVNHTVALSTIGESNYHFGVTYVGTKQLSPTEAFPVLVGDMDNSGSLNAQVIHQLGPGLRSKMAIQTQQSKFVNWQVDGEYRGSDFTAAVTLGNPDVLVGSGILVAHYLQSITPCLALGGELVYHRRPGEEGTVMSLAGKYTLNNWLATVTLGQAGMHATYYHKASDQLQVGVEFEASTRMQDTSVSFGYQLDLPKANLLFKGSVDSNWIVGATLEKKLPPLPLTLALGAFLNHRKNKFQCGFGLTIG
Turning to B1, the binding result in assay [2] is given as “binds”.
